Data published in the supplement of paper PMC4604168 (melanoma cell lines).
Some of the results follow. Repeats are few or missing, and single values can be far off.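 Imaging used 1,536-well plates; nuclei positive for cleaved PARP by antibody were divided by total DNA-stained nuclei to yield the apoptosis fraction. Doses for screening kept most cells viable, and cell lines differ markedly in resting and induced cleaved-PARP levels.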

Experiments:
Experiment in all cases: cleaved PARP positive nuclei fraction relative to DMSO control; melanoma cells; higher = more apoptosis
Settings in all cases: library dose: low library concentration; 72 h
[1] = tested on: 501Mel
[2] = tested on: A101D
[3] = tested on: A2058
[4] = tested on: A375
[5] = tested on: C32
[6] = tested on: CBRC013 (line from a melanoma biopsy)
[7] = tested on: CBRC014 (line from a melanoma biopsy)
[8] = tested on: CBRC016 (line from a melanoma biopsy)
[9] = tested on: CBRC017 (line from a melanoma biopsy)

Compound | cleaved PARP positive nuclei fraction [1] | cleaved PARP positive nuclei fraction [2] | cleaved PARP positive nuclei fraction [3] | cleaved PARP positive nuclei fraction [4] | cleaved PARP positive nuclei fraction [5] | cleaved PARP positive nuclei fraction [6] | cleaved PARP positive nuclei fraction [7] | cleaved PARP positive nuclei fraction [8] | cleaved PARP positive nuclei fraction [9]
CN(C)S(=O)(=O)c1ccc2c(c1)/C(=C/c1cc3c([nH]1)CCCC3)C(=O)N2 + COC(=O)c1sccc1S(=O)(=O)Nc1ccc(Nc2ccccc2)cc1OC [GSK0660] (first compound 0.4 µM, partner dose 1 µM) | 166% | 131% | 91.6% | 185% | 63.5% | 24.7% | 104% | 133% | 100%
O=C(O)C(=O)Nc1sc2c(c1C(=O)O)CCNC2 + O=c1cc(-c2cccc3c2Sc2ccccc2S3)oc(N2CCOCC2)c1 [KU55933] (first compound 1.66667 µM, partner dose 1 µM) | 113% | 54.3% | 63.2% | 315% | 132% | 76% | 78.4% | 56.3% | 63.8%
COC(=O)c1sccc1S(=O)(=O)Nc1ccc(Nc2ccccc2)cc1OC + O=c1cc(-c2cccc3c2Sc2ccccc2S3)oc(N2CCOCC2)c1 [KU55933] (first compound 1 µM, partner dose 1 µM) | 102% | 105% | 67% | 72.6% | 152% | 46.1% | 96.9% | 37.6% | 130%
O=C(Nc1ccccc1)c1cc([N+](=O)[O-])ccc1Cl + COc1cc2ncnc(Nc3ccc(Oc4ccccc4)cc3)c2cc1OC [SrcI1] (first compound 2 µM, partner dose 2 µM) | 86.2% | 107% | 80% | 86.9% | 100% | 17.9% | 90.1% | 73.1% | 88%
O=C(O)c1ccc(-c2c[nH]c3ncc(-c4ccccc4)cc23)cc1C1CCCC1 + COc1ccc(COc2ccc(Cc3cnc(N)nc3N)cc2OC)cc1 [GW2580] (first compound 0.16 µM, partner dose 1 µM) | 84.7% | 41.6% | 59% | 185% | 125% | 163% | 105% | 21.8% | 205%
CN(C)S(=O)(=O)c1ccc2c(c1)/C(=C/c1cc3c([nH]1)CCCC3)C(=O)N2 + O=C1NC(=O)/C(=C/c2ccc(-c3ccc(F)cc3O)o2)S1 [AS252424] (first compound 0.4 µM, partner dose 1 µM) | 92.4% | 478% | 88.8% | 72.7% | 92.4% | 227% | 137% | 102% | 49.4%
CN(NC(=O)CC(=O)NN(C)C(=S)c1ccccc1)C(=S)c1ccccc1 + COC(=O)c1sccc1S(=O)(=O)Nc1ccc(Nc2ccccc2)cc1OC [GSK0660] (first compound 0.006 µM, partner dose 1 µM) | 174% | 51.9% | 218% | 2470% | 747% | 128% | 432% | 195% | 146%
CN(NC(=O)CC(=O)NN(C)C(=S)c1ccccc1)C(=S)c1ccccc1 + CC(C)CCN1c2nc(Nc3cc(F)c(O)c(F)c3)ncc2N(C)C(=O)C1C [BID1870] (first compound 0.006 µM, partner dose 0.2 µM) | 194% | 150% | 174% | 2480% | 459% | 193% | 640% | 153% | 138%
NCC(=O)Nc1ccc(-n2nc(C(F)(F)F)cc2-c2ccc3c(ccc4ccccc43)c2)cc1 + O=C1NC(=O)/C(=C/c2ccc(-c3ccc(F)cc3O)o2)S1 [AS252424] (first compound 1 µM, partner dose 1 µM) | 369% | 98.8% | 33.5% | 3690% | 145% | 561% | 77% | 71.2% | 136%
COC(=O)c1sccc1S(=O)(=O)Nc1ccc(Nc2ccccc2)cc1OC + c1cc(-c2cnn3cc(-c4ccc(OCCN5CCCCC5)cc4)cnc23)ccn1 [Dorsomorphin] (first compound 1 µM, partner dose 0.4 µM) | 71.9% | 268% | 132% | 72% | 71.1% | 81.6% | 111% | 101% | 89.3%
O=C(O)c1ccc(-c2c[nH]c3ncc(-c4ccccc4)cc23)cc1C1CCCC1 + N#Cc1c(O)c2c(-c3ccc(-c4ccccc4O)cc3)csc2[nH]c1=O [A769662] (first compound 0.16 µM, partner dose 2 µM) | 50.2% | 52.6% | 42.7% | 128% | 265% | 41% | 216% | 108% | 101%
COc1cc(N2CCC(N3CCN(C)CC3)CC2)ccc1Nc1ncc(Cl)c(Nc2ccccc2S(=O)(=O)C(C)C)n1 + Cn1cc(/C=C2\C(=O)Nc3cccnc32)c2ccccc21 [GW441756] (first compound 0.08 µM, partner dose 0.4 µM) | 90% | 242% | 125% | 201% | 189% | 61.6% | 104% | 42.1% | 106%
COC(=O)c1sccc1S(=O)(=O)Nc1ccc(Nc2ccccc2)cc1OC + O=C1NC(=O)/C(=C/c2ccc(-c3ccc(F)cc3O)o2)S1 [AS252424] (first compound 1 µM, partner dose 1 µM) | 111% | 104% | 20.7% | 120% | 88.1% | 36.9% | 88.7% | 101% | 37.5%
Cc1cc([N+](=O)[O-])ccc1NS(=O)(=O)c1cc(Cl)ccc1Cl + O=c1cc(-c2cccc3c2Sc2ccccc2S3)oc(N2CCOCC2)c1 [KU55933] (first compound 1 µM, partner dose 1 µM) | 115% | 136% | 24% | 179% | 138% | 71.5% | 394% | 2730% | 700%
O=C(O)c1ccc(-c2c[nH]c3ncc(-c4ccccc4)cc23)cc1C1CCCC1 + Cn1cc(/C=C2\C(=O)Nc3cccnc32)c2ccccc21 [GW441756] (first compound 0.16 µM, partner dose 0.4 µM) | 70.3% | 107% | 418% | 102% | 46.6% | 211% | 105% | 97.2% | 112%
COC(=O)c1sccc1S(=O)(=O)Nc1ccc(Nc2ccccc2)cc1OC + O=S(=O)(c1ccccc1)N(CC(F)(F)F)c1ccc(C(O)(C(F)(F)F)C(F)(F)F)cc1 [T0901317] (first compound 1 µM, partner dose 1.4 µM) | 94.5% | 59.5% | 134% | 139% | 91.2% | 77.3% | 87.1% | 83.7% | 86.4%
COC(=O)c1sccc1S(=O)(=O)Nc1ccc(Nc2ccccc2)cc1OC + COc1cc(N2CCC(N3CCN(C)CC3)CC2)ccc1Nc1ncc(Cl)c(Nc2ccccc2S(=O)(=O)C(C)C)n1 [NVP-TAE684] (first compound 1 µM, partner dose 0.08 µM) | 178% | 154% | 156% | 179% | 201% | 180% | 111% | 81.1% | 226%
CCc1ccc(CCOc2ccc(CC3SC(=O)NC3=O)cc2)nc1 (stereo not given) [pioglitazone] + O=C1NC(=O)/C(=C/c2ccc(-c3ccc(F)cc3O)o2)S1 [AS252424] (first compound 2 µM, partner dose 1 µM) | 171% | 114% | 100% | 53.3% | 51% | 149% | 95.7% | 115% | 79.2%
CN(C)S(=O)(=O)c1ccc2c(c1)/C(=C/c1cc3c([nH]1)CCCC3)C(=O)N2 + O=S(=O)(c1ccccc1)N(CC(F)(F)F)c1ccc(C(O)(C(F)(F)F)C(F)(F)F)cc1 [T0901317] (first compound 0.4 µM, partner dose 1.4 µM) | 190% | 66.2% | 49.5% | 150% | 31% | 67.4% | 106% | 162% | 105%
COc1ccc2c(c1)CCC1C2CCC2(C)C(NCCCCCCN3C(=O)C=CC3=O)CCC12 (stereo not given) + O=S(=O)(c1ccccc1)N(CC(F)(F)F)c1ccc(C(O)(C(F)(F)F)C(F)(F)F)cc1 [T0901317] (first compound 0.4 µM, partner dose 1.4 µM) | 176% | 213% | 77.9% | 174% | 136% | 20.9% | 120% | 111% | 90.3%
COc1cc2c(Oc3ccc4[nH]c(C)cc4c3F)ncnc2cc1OCCCN1CCCC1 [cediranib] + COc1cc(N2CCC(N3CCN(C)CC3)CC2)ccc1Nc1ncc(Cl)c(Nc2ccccc2S(=O)(=O)C(C)C)n1 [NVP-TAE684] (first compound 0.4 µM, partner dose 0.08 µM) | 171% | 114% | 194% | 187% | 140% | 91% | 103% | 82.3% | 78.5%
CN(C)S(=O)(=O)c1ccc2c(c1)/C(=C/c1cc3c([nH]1)CCCC3)C(=O)N2 + CCN(CC)CCCCNc1ncc2cc(-c3cc(OC)cc(OC)c3)c(NC(=O)NC(C)(C)C)nc2n1 [PD173074] (first compound 0.4 µM, partner dose 0.1 µM) | 35.9% | 395% | 44.9% | 72.1% | 220% | 66.9% | 108% | 97.1% | 112%
CN(C)S(=O)(=O)c1ccc2c(c1)/C(=C/c1cc3c([nH]1)CCCC3)C(=O)N2 + Oc1cc(-c2nc(-c3ccccc3)[nH]c2-c2ccncc2)ccc1Cl [L779450] (first compound 0.4 µM, partner dose 0.2 µM) | 61.2% | 125% | 54.5% | 26% | 46.8% | 42.3% | 113% | 84.5% | 90.3%
O=C(O)c1ccc(-c2c[nH]c3ncc(-c4ccccc4)cc23)cc1C1CCCC1 + O=c1cc(-c2cccc3c2Sc2ccccc2S3)oc(N2CCOCC2)c1 [KU55933] (first compound 0.16 µM, partner dose 1 µM) | 75% | 89.9% | 58.6% | 102% | 49.6% | 486% | 228% | 108% | 119%
COc1ccc(COc2ccc(Cc3cnc(N)nc3N)cc2OC)cc1 + Cn1cc(/C=C2\C(=O)Nc3cccnc32)c2ccccc21 [GW441756] (first compound 1 µM, partner dose 0.4 µM) | 78.2% | 105% | 96.9% | 112% | 74.9% | 128% | 106% | 56.8% | 93.8%

Random excerpt: two entries already listed, in no set order.
Compound | cleaved PARP positive nuclei fraction [1] | cleaved PARP positive nuclei fraction [2] | cleaved PARP positive nuclei fraction [3] | cleaved PARP positive nuclei fraction [4] | cleaved PARP positive nuclei fraction [5] | cleaved PARP positive nuclei fraction [6] | cleaved PARP positive nuclei fraction [7] | cleaved PARP positive nuclei fraction [8] | cleaved PARP positive nuclei fraction [9]
COc1ccc2c(c1)CCC1C2CCC2(C)C(NCCCCCCN3C(=O)C=CC3=O)CCC12 (stereo not given) + O=S(=O)(c1ccccc1)N(CC(F)(F)F)c1ccc(C(O)(C(F)(F)F)C(F)(F)F)cc1 [T0901317] (first compound 0.4 µM, partner dose 1.4 µM) | 176% | 213% | 77.9% | 174% | 136% | 20.9% | 120% | 111% | 90.3%
CN(NC(=O)CC(=O)NN(C)C(=S)c1ccccc1)C(=S)c1ccccc1 + CC(C)CCN1c2nc(Nc3cc(F)c(O)c(F)c3)ncc2N(C)C(=O)C1C [BID1870] (first compound 0.006 µM, partner dose 0.2 µM) | 194% | 150% | 174% | 2480% | 459% | 193% | 640% | 153% | 138%
